Laboratory results reported in the supplement of paper PMC10331698.
± gives the standard deviation of the averaged measurements. Most entries show no effect beyond the scatter of the controls.

Experiments:
Experiment in all cases: level (log10 ratio to DMSO vehicle control); higher = higher biomarker level / cell amount than vehicle control
[1] = compound: CC(C)(C)C(=O)CC(=O)C(F)(F)C(F)(F)C(F)(F)F [(Heptafluorobutanoyl)pivaloylmethane]; conditions: 2200 nM; in DMSO
Method: (§1)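 BioMAP Diversity Plus panel of 12 human primary cell co-culture systems (3C, 4H, LPS, SAg, BT, BF4T, BE3C, CASM3C, HDF3CGF, KF3CT, MyoF, Mphg). Compounds were added 1 h before stimulation and left for 24 h (MyoF 48 h; BT 72 h for soluble read-outs or 6 d for IgG). Biomarkers were read by ELISA, cytotoxicity by SRB, PBMC viability and proliferation by Alamar Blue. Each well value was divided by the mean of 8 DMSO control wells on the same plate and log10 transformed; duplicate blinded samples were tested at 4 concentrations.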

1-(Perfluorohexyl)octane = compound: CCCCCCCCC(F)(F)C(F)(F)C(F)(F)C(F)(F)C(F)(F)C(F)(F)F [1-(Perfluorohexyl)octane]; conditions: in DMSO
Method: as §1

[2] = compound: CCN(CCO)S(=O)(=O)C(F)(F)C(F)(F)C(F)(F)C(F)(F)C(F)(F)C(F)(F)C(F)(F)C(F)(F)F [N-Ethyl-N-(2-hydroxyethyl)perfluorooctanesulfonamide]; conditions: in DMSO
Method: as §1

[3] = compound: CN(C(=O)C(F)(F)C(F)(F)C(F)(F)F)[Si](C)(C)C [N-Methyl-N-trimethylsilylheptafluorobutyramide]; conditions: 2200 nM; in DMSO
Method: as §1

[4] = compound: Cc1ccc(S(=O)(=O)OCC(F)(F)C(F)(F)C(F)(F)C(F)(F)C(F)(F)C(F)F)cc1 [1H,1H,7H-Perfluoroheptyl 4-methylbenzenesulfonate]; conditions: 2200 nM; in DMSO
Method: as §1

[5] = compound: FC(F)(F)C(F)(F)C(F)(F)C(F)(F)C(F)(F)C(F)(F)CC1CO1 [3-(Perfluorohexyl)-1,2-epoxypropane]; conditions: 2200 nM; in DMSO
Method: as §1

Heptafluorobutyramide = compound: NC(=O)C(F)(F)C(F)(F)C(F)(F)F [Heptafluorobutyramide]; conditions: 2200 nM; in DMSO
Method: as §1

[6] = compound: NCC(F)(F)C(F)(F)C(F)(F)C(F)(F)C(F)(F)C(F)(F)C(F)(F)F [1H,1H-Perfluorooctylamine]; conditions: 2200 nM; in DMSO
Method: as §1

Octafluoroadipic acid = compound: O=C(O)C(F)(F)C(F)(F)C(F)(F)C(F)(F)C(=O)O [Octafluoroadipic acid]; conditions: 2200 nM; in DMSO
Method: as §1

[7] = compound: O=C(O)C(F)(F)C(F)(F)C(F)(F)C(F)(F)C(F)(F)C(F)(F)C(F)(F)C(F)(F)C(F)(F)C(F)F [11-H-Perfluoroundecanoic acid]; conditions: 2200 nM; in DMSO
Method: as §1

Perfluoroheptanoic acid = compound: O=C(O)C(F)(F)C(F)(F)C(F)(F)C(F)(F)C(F)(F)C(F)(F)F [Perfluoroheptanoic acid]; conditions: in DMSO
Method: as §1

Perfluoropentanoic acid = compound: O=C(O)C(F)(F)C(F)(F)C(F)(F)C(F)(F)F [Perfluoropentanoic acid]; conditions: in DMSO
Method: as §1

[8] = compound: O=C(O)C(F)(F)C(F)(F)C(F)(F)OC(F)(F)F [Perfluoro(4-methoxybutanoic) acid]; conditions: 2200 nM; in DMSO
Method: as §1

[9] = compound: O=S(=O)(O)CCC(F)(F)C(F)(F)C(F)(F)C(F)(F)C(F)(F)C(F)(F)C(F)(F)C(F)(F)F [8:2 Fluorotelomer sulfonic acid]; conditions: in DMSO
Method: as §1

1H,1H-Heptafluorobutanol = compound: OCC(F)(F)C(F)(F)C(F)(F)F [1H,1H-Heptafluorobutanol]; conditions: 2200 nM; in DMSO
Method: as §1

[10] = compound: OCCC(F)(F)C(F)(F)C(F)(F)C(F)(F)C(F)(F)C(F)(F)F [6:2 Fluorotelomer alcohol]; conditions: 2200 nM; in DMSO
Method: as §1

Row | Test System | level (log10) [1] | level (log10) (1-(Perfluorohexyl)octane; 740 nM) | level (log10) (1-(Perfluorohexyl)octane; 2200 nM) | level (log10) ([2]; 2200 nM) | level (log10) ([2]; 6700 nM) | level (log10) ([2]; 20000 nM) | level (log10) [3] | level (log10) [4] | level (log10) [5] | level (log10) (Heptafluorobutyramide) | level (log10) [6] | level (log10) (Octafluoroadipic acid) | level (log10) [7] | level (log10) (Perfluoroheptanoic acid; 2200 nM) | level (log10) (Perfluoroheptanoic acid; 6700 nM) | level (log10) (Perfluoroheptanoic acid; 20000 nM) | level (log10) (Perfluoroheptanoic acid; 60000 nM) | level (log10) (Perfluoropentanoic acid; 2200 nM) | level (log10) (Perfluoropentanoic acid; 6700 nM) | level (log10) (Perfluoropentanoic acid; 20000 nM) | level (log10) (Perfluoropentanoic acid; 60000 nM) | level (log10) [8] | level (log10) ([9]; 2200 nM) | level (log10) ([9]; 6700 nM) | level (log10) ([9]; 20000 nM) | level (log10) ([9]; 60000 nM) | level (log10) (1H,1H-Heptafluorobutanol) | level (log10) [10]
1 | HDF3CGF:CCL2/MCP-1 | -0.0195 ± 0.00071 | -0.0075 ± 0.011 | -0.0175 ± 0.0035 | 0.006 ± 0.0085 | -0.0485 ± 0.005 | -0.1335 ± 0.00071 | -0.011 ± 0.0014 | -0.01 ± 0.031 | -0.0005 ± 0.013 | 0.01 ± 0.027 | -0.001 ± 0.024 | 0.0215 ± 0.07 | 0.0065 ± 0.019 | 0.0045 ± 0.011 | -0.0085 ± 0.0064 | 0.0135 ± 0.00071 | 0.0115 ± 0.016 | -0.053 ± 0.05 | -0.03 ± 0.017 | -0.054 ± 0.013 | -0.022 ± 0.048 | 0.009 ± 0.02 | 0.012 ± 0.045 | 0.0005 ± 0.022 | -0.008 ± 0.03 | 0.0115 ± 0.022 | -0.005 ± 0.0099 | -0.0085 ± 0.018
2 | HDF3CGF:CD54/ICAM-1 | -0.0065 ± 0.012 | -0.0045 ± 0.015 | -0.011 ± 0.0099 | 0.084 ± 0.0071 | 0.133 ± 0.019 | 0.089 ± 0.0042 | -0.008 ± 0.025 | -0.0075 ± 0.00071 | -0.016 ± 0.0014 | -0.007 ± 0.013 | -0.0025 ± 0.025 | 0 ± 0.016 | -0.0335 ± 0.012 | -0.0045 ± 0.0021 | 0.004 ± 0.02 | -0.0145 ± 0.005 | -0.0255 ± 0.018 | 0.0415 ± 0.071 | 0.039 ± 0.054 | 0.035 ± 0.033 | 0.0485 ± 0.046 | -0.0055 ± 0.0078 | -0.031 ± 0.035 | -0.012 ± 0.017 | -0.04 ± 0.011 | -0.0805 ± 0.012 | -0.0045 ± 0.00071 | -0.0165 ± 0.013
3 | HDF3CGF:CD106/VCAM-1 | -0.046 ± 0.04 | -0.026 ± 0.023 | -0.031 ± 0.03 | -0.0215 ± 0.042 | -0.0825 ± 0.046 | -0.173 ± 0.11 | -0.01 ± 0.011 | -0.035 ± 0.0099 | -0.0195 ± 0.04 | -0.0265 ± 0.016 | -0.0515 ± 0.012 | -0.0255 ± 0.0035 | -0.0605 ± 0.14 | -0.019 ± 0.0014 | -0.034 ± 0.027 | -0.0135 ± 0.029 | -0.021 ± 0.038 | -0.0025 ± 0.00071 | -0.0095 ± 0.005 | 0.0035 ± 0.036 | 0.0035 ± 0.022 | 0.0105 ± 0.0035 | -0.0055 ± 0.12 | 0.0015 ± 0.091 | 0.007 ± 0.073 | -0.072 ± 0.045 | -0.0775 ± 0.00071 | -0.016 ± 0.013
4 | HDF3CGF:CXCL8/IL-8 | 0.0035 ± 0.005 | 0.007 ± 0.011 | -0.0065 ± 0.0035 | 0.0115 ± 0.021 | 0.0345 ± 0.016 | 0.011 ± 0.0071 | 0.0115 ± 0.011 | 0.0115 ± 0.005 | -0.0055 ± 0.015 | -0.0085 ± 0.005 | -0.0075 ± 0.015 | 0 ± 0.0071 | 0.008 ± 0.0014 | -0.004 ± 0.0042 | -0.0055 ± 0.0078 | -0.0055 ± 0.0064 | 0.0095 ± 0.013 | -0.007 ± 0.0071 | 0.003 ± 0.0057 | -0.006 ± 0.0028 | 0.002 ± 0.023 | -0.001 ± 0.017 | 0.001 ± 0.0028 | -0.0145 ± 0.0064 | -0.0045 ± 0.0035 | -0.0015 ± 0.026 | 0 ± 0.0028 | 0.006 ± 0.0071
5 | HDF3CGF:CXCL9/MIG | -0.028 ± 0.021 | -0.0075 ± 0.025 | 0.0045 ± 0.023 | -0.013 ± 0.0057 | -0.0065 ± 0.015 | -0.159 ± 0.023 | -0.003 ± 0.0014 | -0.0215 ± 0.023 | 0.0075 ± 0.021 | 0.0025 ± 0.015 | -0.008 ± 0.017 | -0.0005 ± 0.0064 | -0.107 ± 0.13 | 0.0005 ± 0.019 | -0.009 ± 0.0071 | -0.002 ± 0.021 | 0.0165 ± 0.0064 | 0.0045 ± 0.00071 | -0.004 ± 0.0057 | -0.004 ± 0.018 | -0.003 ± 0.02 | 0.005 ± 0.0028 | 0.0045 ± 0.016 | -0.048 ± 0.034 | -0.0575 ± 0.04 | 0.061 ± 0.034 | -0.0145 ± 0.029 | 0.006 ± 0.0057
